These are yes or no findings as the source states them, for the method shown. In cells and extracts the contact can be indirect. Some entries that bind do so weakly or less than the wild type.
Target: T1, Chromodomain on Y-like 2 (CDYL2), endogenous protein in MCF7 / HEK293T cell lysates (human) (UniProt Q8N8U2)
T1 sequence: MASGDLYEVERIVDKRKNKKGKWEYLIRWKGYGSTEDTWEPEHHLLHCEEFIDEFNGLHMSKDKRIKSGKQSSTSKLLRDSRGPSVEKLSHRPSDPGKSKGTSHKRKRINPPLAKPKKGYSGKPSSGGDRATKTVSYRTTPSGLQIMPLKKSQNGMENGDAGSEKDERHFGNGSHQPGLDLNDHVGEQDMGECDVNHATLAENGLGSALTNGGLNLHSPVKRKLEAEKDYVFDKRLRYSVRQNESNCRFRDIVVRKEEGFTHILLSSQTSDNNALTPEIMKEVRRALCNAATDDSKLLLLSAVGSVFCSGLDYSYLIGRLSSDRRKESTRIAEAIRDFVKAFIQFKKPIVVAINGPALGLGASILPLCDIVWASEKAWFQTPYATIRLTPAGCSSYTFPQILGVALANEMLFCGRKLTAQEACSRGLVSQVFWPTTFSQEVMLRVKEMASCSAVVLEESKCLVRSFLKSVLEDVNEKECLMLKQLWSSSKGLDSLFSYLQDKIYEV
Test: reciprocal co-immunoprecipitation (G9a IP) from MCF7 lysates, immunoblot

Chains of the proteins cited; added tags and fusions are not shown. Residues count along the entry.
UniProt Q96KQ7, residues 2-1210: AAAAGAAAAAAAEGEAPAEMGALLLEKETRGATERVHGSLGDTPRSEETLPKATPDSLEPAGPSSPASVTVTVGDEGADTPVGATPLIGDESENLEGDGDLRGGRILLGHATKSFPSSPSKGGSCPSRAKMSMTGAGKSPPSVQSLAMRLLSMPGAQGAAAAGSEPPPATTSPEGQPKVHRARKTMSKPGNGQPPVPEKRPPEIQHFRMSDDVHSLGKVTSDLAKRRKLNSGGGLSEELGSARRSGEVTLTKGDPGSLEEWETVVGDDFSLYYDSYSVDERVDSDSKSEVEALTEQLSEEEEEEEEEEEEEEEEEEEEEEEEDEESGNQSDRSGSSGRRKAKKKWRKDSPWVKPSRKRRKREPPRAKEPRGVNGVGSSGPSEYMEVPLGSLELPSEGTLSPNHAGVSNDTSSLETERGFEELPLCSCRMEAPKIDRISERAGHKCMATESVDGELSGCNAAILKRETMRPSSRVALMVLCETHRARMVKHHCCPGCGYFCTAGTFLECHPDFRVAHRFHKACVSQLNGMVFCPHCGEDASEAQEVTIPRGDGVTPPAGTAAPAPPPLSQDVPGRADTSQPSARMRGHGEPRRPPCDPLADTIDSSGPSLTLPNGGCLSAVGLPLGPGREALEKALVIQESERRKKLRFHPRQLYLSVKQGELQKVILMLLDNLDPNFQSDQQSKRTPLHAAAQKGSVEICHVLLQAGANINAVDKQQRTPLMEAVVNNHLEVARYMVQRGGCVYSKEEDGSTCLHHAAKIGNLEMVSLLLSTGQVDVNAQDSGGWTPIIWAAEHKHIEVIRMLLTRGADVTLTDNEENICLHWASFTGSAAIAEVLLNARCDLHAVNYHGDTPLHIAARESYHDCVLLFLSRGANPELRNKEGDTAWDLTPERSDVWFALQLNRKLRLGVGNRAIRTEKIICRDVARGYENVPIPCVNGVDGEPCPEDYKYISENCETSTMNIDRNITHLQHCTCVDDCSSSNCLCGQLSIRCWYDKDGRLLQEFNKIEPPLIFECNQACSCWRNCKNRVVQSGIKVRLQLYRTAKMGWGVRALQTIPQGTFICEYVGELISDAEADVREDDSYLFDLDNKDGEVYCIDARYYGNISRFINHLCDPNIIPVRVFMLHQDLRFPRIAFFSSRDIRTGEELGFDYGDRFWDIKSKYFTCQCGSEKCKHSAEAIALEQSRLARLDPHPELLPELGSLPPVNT

histone methyltransferase G9a (H3K9 methyltransferase G9a/EHMT2), endogenous in MCF7 lysates (from UniProt Q96KQ7 2-1210) (enzyme)
binding: binds
